# Like-named read-outs stand apart in the source and are kept apart here. No constants are given. Whether binding was seen depends on the method and setting. Binding seen in cells or lysates may run through a third protein. Some entries that bind do so weakly or less than the wild type. For some of these results: Tags and fused reporters may be left off the sequences shown.
# Chains of the proteins cited; added tags and fusions are not shown. Lines headed by an entry give the natural chain unless they say otherwise; changes in a name come on top.
# UniProt Q96524, whole entry: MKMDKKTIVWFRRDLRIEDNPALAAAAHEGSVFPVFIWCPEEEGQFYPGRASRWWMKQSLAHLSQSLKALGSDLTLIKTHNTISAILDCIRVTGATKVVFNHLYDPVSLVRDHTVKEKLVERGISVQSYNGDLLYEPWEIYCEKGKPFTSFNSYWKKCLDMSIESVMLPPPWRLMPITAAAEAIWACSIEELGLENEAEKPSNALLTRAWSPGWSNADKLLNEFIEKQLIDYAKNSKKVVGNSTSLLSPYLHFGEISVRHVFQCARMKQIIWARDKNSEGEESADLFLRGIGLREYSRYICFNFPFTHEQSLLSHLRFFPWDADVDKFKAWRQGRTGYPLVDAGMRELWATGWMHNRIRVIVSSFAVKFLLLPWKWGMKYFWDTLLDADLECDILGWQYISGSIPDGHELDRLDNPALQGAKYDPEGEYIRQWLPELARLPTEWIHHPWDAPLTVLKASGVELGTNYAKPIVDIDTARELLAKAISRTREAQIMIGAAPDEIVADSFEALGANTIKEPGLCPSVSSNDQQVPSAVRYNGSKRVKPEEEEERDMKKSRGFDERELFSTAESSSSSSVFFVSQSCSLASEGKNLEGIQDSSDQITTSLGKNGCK
# T1: COP1-6xHis-3xFlag (Arabidopsis thaliana) (UniProt P43254)
# T1 sequence: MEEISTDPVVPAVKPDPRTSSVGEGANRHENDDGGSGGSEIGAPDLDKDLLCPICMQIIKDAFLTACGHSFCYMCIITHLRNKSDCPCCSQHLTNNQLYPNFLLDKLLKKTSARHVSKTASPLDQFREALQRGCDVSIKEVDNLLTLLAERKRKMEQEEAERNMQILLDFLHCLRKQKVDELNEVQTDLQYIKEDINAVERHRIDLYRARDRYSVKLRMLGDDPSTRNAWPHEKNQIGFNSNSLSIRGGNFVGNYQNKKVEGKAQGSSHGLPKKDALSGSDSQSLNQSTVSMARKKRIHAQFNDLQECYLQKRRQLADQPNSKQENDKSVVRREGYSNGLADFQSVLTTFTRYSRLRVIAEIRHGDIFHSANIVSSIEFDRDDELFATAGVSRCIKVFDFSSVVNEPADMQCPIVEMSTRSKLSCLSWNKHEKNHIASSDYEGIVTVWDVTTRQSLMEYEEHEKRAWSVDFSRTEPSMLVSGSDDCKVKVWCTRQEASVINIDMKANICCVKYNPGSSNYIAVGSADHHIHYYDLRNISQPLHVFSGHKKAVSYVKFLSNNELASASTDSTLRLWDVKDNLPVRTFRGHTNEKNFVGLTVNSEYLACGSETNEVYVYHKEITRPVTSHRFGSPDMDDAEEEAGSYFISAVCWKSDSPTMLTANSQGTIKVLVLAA
# T2: COP1-nVenus (Arabidopsis thaliana) (UniProt P43254)
# T2 sequence: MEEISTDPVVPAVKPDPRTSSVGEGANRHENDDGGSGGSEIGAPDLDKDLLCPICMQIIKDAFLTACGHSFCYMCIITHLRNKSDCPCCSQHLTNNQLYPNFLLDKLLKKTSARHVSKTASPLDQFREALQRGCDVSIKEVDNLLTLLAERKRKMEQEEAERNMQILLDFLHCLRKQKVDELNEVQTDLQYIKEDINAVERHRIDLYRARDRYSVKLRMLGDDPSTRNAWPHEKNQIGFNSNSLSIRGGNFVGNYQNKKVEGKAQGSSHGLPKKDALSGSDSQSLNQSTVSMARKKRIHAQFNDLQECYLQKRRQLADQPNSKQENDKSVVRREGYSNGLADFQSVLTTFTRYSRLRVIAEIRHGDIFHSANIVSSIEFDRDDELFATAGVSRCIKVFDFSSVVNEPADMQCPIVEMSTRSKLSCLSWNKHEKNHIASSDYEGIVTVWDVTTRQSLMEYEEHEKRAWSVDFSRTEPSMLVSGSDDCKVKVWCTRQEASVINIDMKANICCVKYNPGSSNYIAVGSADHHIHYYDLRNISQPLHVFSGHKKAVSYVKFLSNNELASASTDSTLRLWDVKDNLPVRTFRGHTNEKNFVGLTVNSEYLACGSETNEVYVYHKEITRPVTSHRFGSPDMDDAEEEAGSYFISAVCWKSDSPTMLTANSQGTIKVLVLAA
# Tests used:
# [1] = molecular target: Flash-CRY2 (UBQ10pro::Flash-CRY2) expressed in N. benthamiana (Arabidopsis thaliana) (UniProt Q96524); assay: co-IP
# [2] = molecular target: Flash-CRY2 (UBQ10pro::Flash-CRY2) expressed in N. benthamiana (Arabidopsis thaliana) (UniProt Q96524); assay: co-IP; remark: listed apart in the source
# [3] = molecular target: T1, COP1-6xHis-3xFlag (Arabidopsis thaliana); assay: co-IP
# [4] = molecular target: nVenus-CRY2 (Arabidopsis thaliana) (UniProt Q96524); assay: split reporter
# [5] = molecular target: T2, COP1-nVenus (Arabidopsis thaliana); assay: split reporter
# [6] = molecular target: 9×Myc-6×His-3×Flag-CRY2 (Arabidopsis thaliana) (UniProt Q96524); assay: co-IP
molecule,measurement,setting,value
UBP13ΔMATH-6xHA (from UniProt Q84WU2 179-1115) (domain or fragment),binding,[1],no binding
"UBP13-6xHA expressed in N. benthamiana (enzyme, UniProt Q84WU2 1-1115) MTMMTPPPLDQQEDEEMLVPNPDLVEGPQPMEVAQTDPAATAVENPPPEDPPSLKFTWTIPMFTRLNTRKHYSDVFVVGGYKWRILIFPKGNNVDHLSMYLDVADAANLPYGWSRYSQFSLAVVNQVNNRYSIRKETQHQFNARESDWGFTSFMPLSELYEPTRGYLVNDTVLIEAEVAVRKVLDYWSYDSKKETGFVGLKNQGATCYMNSLLQTLYHIPYFRKAVYHMPTTENDAPTASIPLALQSLFYKLQYNDTSVATKELTKSFGWDTYDSFMQHDVQELNRVLCEKLEDKMKGTVVEGTIQKLFEGHHMNYIECINVDYKSTRKESFYDLQLDVKGCKDVYASFDKYVEVERLEGDNKYHAEGHDLQDAKKGVLFIDFPPVLQLQLKRFEYDFMRDTMVKINDRYEFPLQLDLDREDGRYLSPDADKSVRNLYTLHSVLVHSGGVHGGHYYAFIRPTLSDQWYKFDDERVTKEDVKRALEEQYGGEEELPQNNPGFNNPPFKFTKYSNAYMLVYIRESDKDKIICNVDEKDIAEHLRVRLKKEQEEKEDKRKYKAQAHLFTTIKVARDDDITEQIGKNIYFDLVDHEKVRSFRIQKQTPFQQFKEEVAKEFGVPVQLQRFWIWAKRQNHTYRPNRPLSPNEELQTVGQIREASNKANNAELKLFLEIERGPDDLPIPPPEKTSEDILLFFKLYDPENAVLRYVGRLMVKSSSKPMDIVGQLNKMAGFAPDEEIELFEEIKFEPCVMCEQIDKKTSFRLCQIEDGDIICYQKPLSIEESEFRYPDVPSFLEYVQNRELVRFRTLEKPKEDEFTMELSKLHTYDDVVERVAEKLGLDDPSKLRLTSHNCYSQQPKPQPIKYRGVDHLSDMLVHYNQTSDILYYEVLDIPLPELQGLKTLKVAFHSATKDEVIIHNIRLPKQSTVGDVINELKTKVELSHQDAELRLLEVFFHKIYKIFPSTERIENINDQYWTLRAEEIPEEEKNIGPNDRLIHVYHFTKEAGQNQQVQNFGEPFFLVIHEGETLEEIKTRIQKKLHVPDEDFAKWKFASFSMGRPDYLLDTDVVYNRFQRRDVYGAWEQYLGLEHIDNAPKRAYAANQNRHAYEKPVKIYN",binding,[2],binds
same,binding,[3],binds
"UBP13ΔMATH-6xHA (domain or fragment, UniProt Q84WU2 179-1115) AVRKVLDYWSYDSKKETGFVGLKNQGATCYMNSLLQTLYHIPYFRKAVYHMPTTENDAPTASIPLALQSLFYKLQYNDTSVATKELTKSFGWDTYDSFMQHDVQELNRVLCEKLEDKMKGTVVEGTIQKLFEGHHMNYIECINVDYKSTRKESFYDLQLDVKGCKDVYASFDKYVEVERLEGDNKYHAEGHDLQDAKKGVLFIDFPPVLQLQLKRFEYDFMRDTMVKINDRYEFPLQLDLDREDGRYLSPDADKSVRNLYTLHSVLVHSGGVHGGHYYAFIRPTLSDQWYKFDDERVTKEDVKRALEEQYGGEEELPQNNPGFNNPPFKFTKYSNAYMLVYIRESDKDKIICNVDEKDIAEHLRVRLKKEQEEKEDKRKYKAQAHLFTTIKVARDDDITEQIGKNIYFDLVDHEKVRSFRIQKQTPFQQFKEEVAKEFGVPVQLQRFWIWAKRQNHTYRPNRPLSPNEELQTVGQIREASNKANNAELKLFLEIERGPDDLPIPPPEKTSEDILLFFKLYDPENAVLRYVGRLMVKSSSKPMDIVGQLNKMAGFAPDEEIELFEEIKFEPCVMCEQIDKKTSFRLCQIEDGDIICYQKPLSIEESEFRYPDVPSFLEYVQNRELVRFRTLEKPKEDEFTMELSKLHTYDDVVERVAEKLGLDDPSKLRLTSHNCYSQQPKPQPIKYRGVDHLSDMLVHYNQTSDILYYEVLDIPLPELQGLKTLKVAFHSATKDEVIIHNIRLPKQSTVGDVINELKTKVELSHQDAELRLLEVFFHKIYKIFPSTERIENINDQYWTLRAEEIPEEEKNIGPNDRLIHVYHFTKEAGQNQQVQNFGEPFFLVIHEGETLEEIKTRIQKKLHVPDEDFAKWKFASFSMGRPDYLLDTDVVYNRFQRRDVYGAWEQYLGLEHIDNAPKRAYAANQNRHAYEKPVKIYN",binding,[3],binds
"UBP13-cVenus (enzyme, UniProt Q84WU2 1-1115) MTMMTPPPLDQQEDEEMLVPNPDLVEGPQPMEVAQTDPAATAVENPPPEDPPSLKFTWTIPMFTRLNTRKHYSDVFVVGGYKWRILIFPKGNNVDHLSMYLDVADAANLPYGWSRYSQFSLAVVNQVNNRYSIRKETQHQFNARESDWGFTSFMPLSELYEPTRGYLVNDTVLIEAEVAVRKVLDYWSYDSKKETGFVGLKNQGATCYMNSLLQTLYHIPYFRKAVYHMPTTENDAPTASIPLALQSLFYKLQYNDTSVATKELTKSFGWDTYDSFMQHDVQELNRVLCEKLEDKMKGTVVEGTIQKLFEGHHMNYIECINVDYKSTRKESFYDLQLDVKGCKDVYASFDKYVEVERLEGDNKYHAEGHDLQDAKKGVLFIDFPPVLQLQLKRFEYDFMRDTMVKINDRYEFPLQLDLDREDGRYLSPDADKSVRNLYTLHSVLVHSGGVHGGHYYAFIRPTLSDQWYKFDDERVTKEDVKRALEEQYGGEEELPQNNPGFNNPPFKFTKYSNAYMLVYIRESDKDKIICNVDEKDIAEHLRVRLKKEQEEKEDKRKYKAQAHLFTTIKVARDDDITEQIGKNIYFDLVDHEKVRSFRIQKQTPFQQFKEEVAKEFGVPVQLQRFWIWAKRQNHTYRPNRPLSPNEELQTVGQIREASNKANNAELKLFLEIERGPDDLPIPPPEKTSEDILLFFKLYDPENAVLRYVGRLMVKSSSKPMDIVGQLNKMAGFAPDEEIELFEEIKFEPCVMCEQIDKKTSFRLCQIEDGDIICYQKPLSIEESEFRYPDVPSFLEYVQNRELVRFRTLEKPKEDEFTMELSKLHTYDDVVERVAEKLGLDDPSKLRLTSHNCYSQQPKPQPIKYRGVDHLSDMLVHYNQTSDILYYEVLDIPLPELQGLKTLKVAFHSATKDEVIIHNIRLPKQSTVGDVINELKTKVELSHQDAELRLLEVFFHKIYKIFPSTERIENINDQYWTLRAEEIPEEEKNIGPNDRLIHVYHFTKEAGQNQQVQNFGEPFFLVIHEGETLEEIKTRIQKKLHVPDEDFAKWKFASFSMGRPDYLLDTDVVYNRFQRRDVYGAWEQYLGLEHIDNAPKRAYAANQNRHAYEKPVKIYN",binding,[4],binds
same,binding,[5],binds
"UBP13-HA in Arabidopsis transgenic seedlings (enzyme, UniProt Q84WU2 1-1115) MTMMTPPPLDQQEDEEMLVPNPDLVEGPQPMEVAQTDPAATAVENPPPEDPPSLKFTWTIPMFTRLNTRKHYSDVFVVGGYKWRILIFPKGNNVDHLSMYLDVADAANLPYGWSRYSQFSLAVVNQVNNRYSIRKETQHQFNARESDWGFTSFMPLSELYEPTRGYLVNDTVLIEAEVAVRKVLDYWSYDSKKETGFVGLKNQGATCYMNSLLQTLYHIPYFRKAVYHMPTTENDAPTASIPLALQSLFYKLQYNDTSVATKELTKSFGWDTYDSFMQHDVQELNRVLCEKLEDKMKGTVVEGTIQKLFEGHHMNYIECINVDYKSTRKESFYDLQLDVKGCKDVYASFDKYVEVERLEGDNKYHAEGHDLQDAKKGVLFIDFPPVLQLQLKRFEYDFMRDTMVKINDRYEFPLQLDLDREDGRYLSPDADKSVRNLYTLHSVLVHSGGVHGGHYYAFIRPTLSDQWYKFDDERVTKEDVKRALEEQYGGEEELPQNNPGFNNPPFKFTKYSNAYMLVYIRESDKDKIICNVDEKDIAEHLRVRLKKEQEEKEDKRKYKAQAHLFTTIKVARDDDITEQIGKNIYFDLVDHEKVRSFRIQKQTPFQQFKEEVAKEFGVPVQLQRFWIWAKRQNHTYRPNRPLSPNEELQTVGQIREASNKANNAELKLFLEIERGPDDLPIPPPEKTSEDILLFFKLYDPENAVLRYVGRLMVKSSSKPMDIVGQLNKMAGFAPDEEIELFEEIKFEPCVMCEQIDKKTSFRLCQIEDGDIICYQKPLSIEESEFRYPDVPSFLEYVQNRELVRFRTLEKPKEDEFTMELSKLHTYDDVVERVAEKLGLDDPSKLRLTSHNCYSQQPKPQPIKYRGVDHLSDMLVHYNQTSDILYYEVLDIPLPELQGLKTLKVAFHSATKDEVIIHNIRLPKQSTVGDVINELKTKVELSHQDAELRLLEVFFHKIYKIFPSTERIENINDQYWTLRAEEIPEEEKNIGPNDRLIHVYHFTKEAGQNQQVQNFGEPFFLVIHEGETLEEIKTRIQKKLHVPDEDFAKWKFASFSMGRPDYLLDTDVVYNRFQRRDVYGAWEQYLGLEHIDNAPKRAYAANQNRHAYEKPVKIYN",binding,[6],binds

# Source: article doi:10.1101/2021.04.29.441934
